Laboratory results from the supplement of paper PMC12823440, “Inhibitors supercharge kinase turnover through native proteolytic circuits” (Nature, 2025).
Counter-ions that a name gives are not always drawn. The list shows a part of the results. Hit calls seldom repeat between salt and free forms of one compound.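 In K562 cells expressing nanoluciferase-fused kinases, luminescence was recorded at 4 h intervals between 2 and 18 h, normalized as percent of control with DMSO at 100% and a positive control at 0%. A significant (2 sigma) signal drop marks a time point as decreased. The authors' rule for a hit is not shown and takes in more than the number of time points.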

By UniProt entry, the sequences of proteins in these tests, tags left out.
UniProt P21802, whole entry, looked up: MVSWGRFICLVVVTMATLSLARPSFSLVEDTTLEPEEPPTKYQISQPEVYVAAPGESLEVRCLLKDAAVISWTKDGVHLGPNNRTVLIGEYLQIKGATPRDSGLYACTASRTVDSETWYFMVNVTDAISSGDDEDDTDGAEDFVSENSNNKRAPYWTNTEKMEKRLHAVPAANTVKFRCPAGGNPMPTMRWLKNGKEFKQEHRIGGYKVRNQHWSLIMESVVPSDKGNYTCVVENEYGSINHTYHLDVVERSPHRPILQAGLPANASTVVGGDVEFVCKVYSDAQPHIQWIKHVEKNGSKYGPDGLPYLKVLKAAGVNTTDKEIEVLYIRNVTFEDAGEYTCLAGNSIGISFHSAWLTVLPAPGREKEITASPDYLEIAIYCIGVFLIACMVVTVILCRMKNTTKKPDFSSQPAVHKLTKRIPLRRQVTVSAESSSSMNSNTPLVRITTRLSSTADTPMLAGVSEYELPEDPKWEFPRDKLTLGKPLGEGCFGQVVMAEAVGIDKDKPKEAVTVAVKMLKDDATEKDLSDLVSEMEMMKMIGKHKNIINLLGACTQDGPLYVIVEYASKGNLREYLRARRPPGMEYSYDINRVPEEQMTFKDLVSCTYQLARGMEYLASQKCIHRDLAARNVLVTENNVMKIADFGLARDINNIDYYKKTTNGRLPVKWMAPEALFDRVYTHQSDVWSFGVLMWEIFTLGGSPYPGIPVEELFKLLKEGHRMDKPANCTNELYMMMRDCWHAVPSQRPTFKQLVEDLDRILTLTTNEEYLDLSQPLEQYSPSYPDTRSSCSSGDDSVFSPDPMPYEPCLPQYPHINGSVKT
UniProt P22607, whole entry, looked up: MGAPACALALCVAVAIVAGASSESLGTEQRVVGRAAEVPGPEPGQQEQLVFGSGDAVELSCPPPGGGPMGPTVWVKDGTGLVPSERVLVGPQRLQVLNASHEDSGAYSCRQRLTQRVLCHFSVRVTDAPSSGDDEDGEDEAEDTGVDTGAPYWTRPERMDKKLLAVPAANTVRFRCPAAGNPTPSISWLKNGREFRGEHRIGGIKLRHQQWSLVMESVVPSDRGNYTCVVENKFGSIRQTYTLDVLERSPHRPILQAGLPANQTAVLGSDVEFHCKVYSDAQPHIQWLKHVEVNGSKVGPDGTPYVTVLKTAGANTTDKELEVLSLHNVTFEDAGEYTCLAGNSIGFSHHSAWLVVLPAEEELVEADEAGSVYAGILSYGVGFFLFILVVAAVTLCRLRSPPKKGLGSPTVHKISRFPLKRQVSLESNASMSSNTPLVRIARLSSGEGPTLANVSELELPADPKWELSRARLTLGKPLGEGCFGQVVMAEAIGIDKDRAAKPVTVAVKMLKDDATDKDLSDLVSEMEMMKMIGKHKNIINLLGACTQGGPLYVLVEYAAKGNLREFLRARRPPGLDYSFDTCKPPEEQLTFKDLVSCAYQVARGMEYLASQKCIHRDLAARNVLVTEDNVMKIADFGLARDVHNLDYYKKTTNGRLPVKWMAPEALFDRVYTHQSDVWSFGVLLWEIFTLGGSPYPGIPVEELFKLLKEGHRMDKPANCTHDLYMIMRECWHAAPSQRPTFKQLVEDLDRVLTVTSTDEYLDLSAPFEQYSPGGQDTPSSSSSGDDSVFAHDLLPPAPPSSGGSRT

target: FGFR2 (UniProt P21802); assay: kinase-Nluc reporter destabilization hit call (1 = scored as downregulated) (binary); higher = compound decreases kinase abundance; settings: K562; 2-18 h

| SMILES | kinase-Nluc reporter destabilization hit call |
| --- | --- |
| COc1ccc(N(C(=O)Oc2c(C)cccc2C)c2ccnc(Nc3ccc(N4CCN(C)CC4)cc3)n2)c(OC)c1 (2.5 µM) | inactive: 0 |
| COc1ccc2c(c1)[nH]c1c(C)nccc12 [Harmine] (10 µM) | inactive: 0 |
| O=c1cc(O)c2ccccc2o1 [4-Hydroxycoumarin] (10 µM) | inactive: 0 |
| CC(=O)c1c(O)c(C)c(O)c(Cc2c(O)c3c(c(C(=O)/C=C/c4ccccc4)c2O)OC(C)(C)C=C3)c1O [Rottlerin] (2 µM) | inactive: 0 |
| N#CC(C#N)=Cc1ccc(O)c(O)c1 [Tyrphostin 23] (10 µM) | inactive: 0 |
| C/C(O)=C(\C#N)C(=O)Nc1cc(Br)ccc1Br (10 µM) | inactive: 0 |
| Cc1ccccc1-n1c(Cn2ncc3c(N)ncnc32)nc2cccc(C)c2c1=O (10 µM) | inactive: 0 |
| COc1cc2c(cc1F)C(c1ccccc1Cl)=Nc1c(n[nH]c1C)N2 (0.5 µM) | inactive: 0 |
| COc1ccc2c(c1)/C(=C/c1cnc[nH]1)C(=O)N2 (2.5 µM) | inactive: 0 |
| O=[N+]([O-])/C=C/c1ccc2c(c1)OCO2 (2.5 µM) | inactive: 0 |

target: FGFR3 (UniProt P22607); assay: as above; settings: K562; 2-18 h

| SMILES | kinase-Nluc reporter destabilization hit call |
| --- | --- |
| CC1=C[C@]23C(=O)[C@@H](C=C(CO)[C@@H](O)[C@]2(O)[C@H]1O)[C@H]1[C@@H](C[C@H]3C)C1(C)C [Ingenol] (10 µM) | inactive: 0 |
| C=C[C@H]1CN2CC[C@]3(C(=O)Nc4ccccc43)[C@@H]2C[C@@H]1/C(=C\OC)C(=O)OC [Corynoxeine] (2 µM) | inactive: 0 |
| O=C(O)c1sc2cc(Cl)ccc2c1Cl (10 µM) | inactive: 0 |
| C[C@H]1CC[C@]2(NC1)O[C@H]1C[C@H]3[C@@H]4CC[C@H]5C[C@@H](O)CC[C@]5(C)[C@H]4CC[C@]3(C)[C@H]1[C@@H]2C [Tomatidine (hydrochloride)] (10 µM) | inactive: 0 |
| O=C1C=CC[C@@H]2[C@H]3CCCN4CCC[C@@H](CN12)[C@@H]34 [Sophocarpine (monohydrate)] (2.5 µM) | inactive: 0 |
| Cc1n[nH]cc1-c1cc2nc([C@@H]3CC4CCN3CC4)[nH]c(=O)c2s1 [Simurosertib] (2.5 µM) | inactive: 0 |
| O=C(N[C@@H](COc1ccc2[nH]c(=O)[nH]c2c1)c1ccccc1)c1cccn(Cc2ccc(F)c(F)c2)c1=O (2.5 µM) | inactive: 0 |
| O=C(/C=C/c1ccccc1)OC[C@H]1O[C@@H](O[C@@H]2OC=C[C@H]3[C@H](O)[C@@H]4O[C@]4(CO)[C@@H]23)[C@H](O)[C@@H](O)[C@@H]1O [Picroside I] (10 µM) | inactive: 0 |
| C[C@@H]1CC[C@H]2[C@@H](C)C(=O)O[C@@H]3O[C@@]4(C)CC[C@@H]1[C@]32OO4 [Artemisinin] (10 µM) | inactive: 0 |
| N#CC(C#N)=Cc1ccc([N+](=O)[O-])c(O)c1 (10 µM) | inactive: 0 |
| C[C@H](CCC(=O)O)C[C@H](C)C[C@H](C)C(=O)/C=C(\O)[C@H](C)C[C@H](C)C/C=C/[C@@H](C)[C@@H](O)[C@@H](C)[C@@H](O)C[C@@H]1CC[C@@](C)([C@H]2CC[C@@](C)([C@@H](C)O)O2)O1 [Ionomycin (calcium)] (2.5 µM) | inactive: 0 |
| CC1C(=O)OC2C(O)C34C5OC(=O)C3(OC3OC(=O)C(O)C34C(C(C)(C)C)C5O)C12O (centres undefined) [Ginkgolide C] (10 µM) | inactive: 0 |
| Cn1cc(C2=C(c3cn(C4CCN(Cc5ccccn5)CC4)c4ccccc34)C(=O)NC2=O)c2ccccc21 [Enzastaurin] (10 µM) | inactive: 0 |
| O=c1[nH]c2ccccc2n1C1CCN(Cc2ccc(-c3[nH]c4cc5ncnc5cc4nc3-c3ccccc3)cc2)CC1 [AKT inhibitor VIII] (2.5 µM) | inactive: 0 |
| CCN1CCN(C(=O)Cc2ccc(Nc3ncc(F)c(Nc4ccc(C(=O)Nc5ccccc5Cl)cc4)n3)cc2)CC1 (2.5 µM) | inactive: 0 |
| C=CC(=O)N[C@H]1C=C(C)c2c(-c3cnc4ccccc4c3)c3c(N)ncnc3n2C1 (10 µM) | inactive: 0 |
| CC(C)(C)c1cc(C=C(C#N)C#N)cc(Br)c1O (2.5 µM) | inactive: 0 |
| CCCCNc1nc(N)c2[nH]c(=O)n(Cc3ccc(C)nc3)c2n1 (10 µM) | inactive: 0 |
| C=CC(=O)Nc1ccc2[nH]c(=O)n(C3CCN(Cc4ccc(-c5nc6cc[nH]c(=O)c6cc5-c5ccccc5)cc4)CC3)c2c1 [Borussertib] (10 µM) | inactive: 0 |
| COc1ccc(N(C(=O)Oc2c(C)cccc2C)c2ccnc(Nc3ccc(N4CCN(C)CC4)cc3)n2)c(OC)c1 (2.5 µM) | inactive: 0 |
| COc1ccc2c(c1)[nH]c1c(C)nccc12 [Harmine] (10 µM) | inactive: 0 |
| O=c1cc(O)c2ccccc2o1 [4-Hydroxycoumarin] (10 µM) | inactive: 0 |
| CC(=O)c1c(O)c(C)c(O)c(Cc2c(O)c3c(c(C(=O)/C=C/c4ccccc4)c2O)OC(C)(C)C=C3)c1O [Rottlerin] (2 µM) | inactive: 0 |
| N#CC(C#N)=Cc1ccc(O)c(O)c1 [Tyrphostin 23] (10 µM) | inactive: 0 |
| C/C(O)=C(\C#N)C(=O)Nc1cc(Br)ccc1Br (10 µM) | inactive: 0 |
| Cc1ccccc1-n1c(Cn2ncc3c(N)ncnc32)nc2cccc(C)c2c1=O (10 µM) | inactive: 0 |
| COc1cc2c(cc1F)C(c1ccccc1Cl)=Nc1c(n[nH]c1C)N2 (0.5 µM) | inactive: 0 |
| COc1ccc2c(c1)/C(=C/c1cnc[nH]1)C(=O)N2 (2.5 µM) | inactive: 0 |
| O=[N+]([O-])/C=C/c1ccc2c(c1)OCO2 (2.5 µM) | inactive: 0 |
